{"sequences": {"note": "Sequences of proteins named here, by UniProt entry; tags and fusion partners are left off.", "UniProt Q0JBA9, entry or part of it": "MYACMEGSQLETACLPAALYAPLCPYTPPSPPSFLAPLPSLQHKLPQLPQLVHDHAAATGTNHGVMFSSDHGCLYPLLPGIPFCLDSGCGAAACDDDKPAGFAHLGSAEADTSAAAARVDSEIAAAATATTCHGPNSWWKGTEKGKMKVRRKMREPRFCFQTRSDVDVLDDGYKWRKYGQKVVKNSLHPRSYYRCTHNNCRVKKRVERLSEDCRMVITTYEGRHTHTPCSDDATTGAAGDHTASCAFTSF"}, "source": "paper PMC7819943", "about": "“Rice protein-binding microarrays: a tool to detect cis-acting elements near promoter regions in rice”", "note": "The list shows a part of the results.", "data": [{"molecular_target": "OsWRKY34 (Oryza sativa, UniProt Q0JBA9 1-250)", "experiment": "protein-binding microarray (RPBM); PBS, 2% BSA, 51.3 ng/ul salmon testes DNA, 50 uM zinc acetate, 200 nM TF, 25 C, 1 h; high values mean tight binding", "conditions": "protein: recombinant; tags: N-terminal polyhistidine and DsRed monomer fusion (pET32a); label: CyDye5-dUTP incorporated in the synthesized complementary strand; 3' TTTTT single-stranded linker to array surface; dsDNA, one strand shown", "in_short": "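Binding signal is defined as the fluorescence intensity of each feature in arbitrary units, read on an Axon 4000B scanner. Transcription factors with N-terminal polyhistidine and DsRed fusions came from E. coli BL21-CodonPlus and were purified on Ni–NTA. They were incubated at 200 nM for 1 h at 25 °C on a custom Agilent array that had been made double-stranded with Cy5-dUTP, with 50 µM zinc acetate present, and the array was washed.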", "values": [{"sequence": "AGACATTCACTAAAGCTGCATATTAGTGTTTTATTTTCACCGGAGTCACCTAGTGCAG", "binding signal": "10000 fluorescence intensity (a.u.)"}, {"sequence": "GTGATTTTGCTCCTGTGATTTTTATCGACTCTTTCCGTTTCGGAGTCACCTAGTGCAG", "binding signal": "10800 fluorescence intensity (a.u.)"}, {"sequence": "TCTTGTTGCTTTTGAACATCTGGTACAGATCTGTTAGTAACGGAGTCACCTAGTGCAG", "binding signal": "9460 fluorescence intensity (a.u.)"}, {"sequence": "GGCCTATAAATACCACCAGTCTGGCACCATCCACAACCCACGGAGTCACCTAGTGCAG", "binding signal": "10800 fluorescence intensity (a.u.)"}, {"sequence": "TTCCTTCTTCCTTCTTTTTTTCTCTCTTCTCCTTTTTTTTCGGAGTCACCTAGTGCAG", "binding signal": "10300 fluorescence intensity (a.u.)"}, {"sequence": "CACTTCGTTCCTATTTTTAACACTTTCGTTAATTCTCGATCGGAGTCACCTAGTGCAG", "binding signal": "8270 fluorescence intensity (a.u.)"}, {"sequence": "AGTTTTTTTCATTGTAGTTTATTTTTTATACTTTACTTTTCGGAGTCACCTAGTGCAG", "binding signal": "10800 fluorescence intensity (a.u.)"}, {"sequence": "CTTATGTTGACATGTTCATTCACTAGTTTTAGTTACTAACCGGAGTCACCTAGTGCAG", "binding signal": "10000 fluorescence intensity (a.u.)"}, {"sequence": "GGGACACGCACCTCTGTCTAGCACTGGGCACATCTATGCTCGGAGTCACCTAGTGCAG", "binding signal": "9930 fluorescence intensity (a.u.)"}, {"sequence": "GGGTTAGGGAGGGGCCTGGTGGTGGTCGGGGCTCTGACGCCGGAGTCACCTAGTGCAG", "binding signal": "13100 fluorescence intensity (a.u.)"}, {"sequence": "GCATCCACCTTTGAGCTCTCCACCGTTGTTTGCATACTCCCGGAGTCACCTAGTGCAG", "binding signal": "13300 fluorescence intensity (a.u.)"}, {"sequence": "TTTGTTTTCATACCATGGATGACTGTTGCTGTGCCAAAATCGGAGTCACCTAGTGCAG", "binding signal": "8460 fluorescence intensity (a.u.)"}, {"sequence": "CATTTTGTTCATTCGGGTTTGATTGTGTCATAGTTCTATACGGAGTCACCTAGTGCAG", "binding signal": "16000 fluorescence intensity (a.u.)"}, {"sequence": "ATGATGTGTCGACGTTATCTCTTTAAAATTGATTTGTCATCGGAGTCACCTAGTGCAG", "binding signal": "12500 fluorescence intensity (a.u.)"}, {"sequence": "TGAATTTTTTTTGACACACGTGGTATGTGTATATGTGTTTCGGAGTCACCTAGTGCAG", "binding signal": "9400 fluorescence intensity (a.u.)"}, {"sequence": "CCTATATTGCAATTTTTGTATTTTTTTCCCTGCAGAAGTACGGAGTCACCTAGTGCAG", "binding signal": "9250 fluorescence intensity (a.u.)"}, {"sequence": "CTCTCTTCTTTCATATTCTCGATATATGTTTATAGCTGGCCGGAGTCACCTAGTGCAG", "binding signal": "8250 fluorescence intensity (a.u.)"}, {"sequence": "CGTCGCCGTCAGCCGCCCGCCGCACTCGTTTCCAGCGATCCGGAGTCACCTAGTGCAG", "binding signal": "11500 fluorescence intensity (a.u.)"}, {"sequence": "GTGTGTGCAGCAGAGTTTGCAATCTTACATGGCTTCTAACCGGAGTCACCTAGTGCAG", "binding signal": "8690 fluorescence intensity (a.u.)"}, {"sequence": "CACCGGCCGACTGCCACTCGCCACCACACGACCACCAGCCCGGAGTCACCTAGTGCAG", "binding signal": "10000 fluorescence intensity (a.u.)"}, {"sequence": "TCTTTTTCCTATGTATCATTGCTTCATTTTCATATGCAGTCGGAGTCACCTAGTGCAG", "binding signal": "8970 fluorescence intensity (a.u.)"}, {"sequence": "TTCAACAAGCGGCAGATTCGATTCACATCCATATATATTACGGAGTCACCTAGTGCAG", "binding signal": "9150 fluorescence intensity (a.u.)"}, {"sequence": "CATTCGAAGCTGGTTCTGTTCCTTACTTCTTCCTCTTAGTCGGAGTCACCTAGTGCAG", "binding signal": "13000 fluorescence intensity (a.u.)"}]}]}
